Data taken from paper doi:10.1101/2021.08.23.457352.
These are yes or no findings as the source states them, for the method shown. Some binding calls cover weakened binding; strength is not graded here. Sequences can lack the tags named with a protein.

Target: T1, GFP-prescission-Hse1 (yeast) (UniProt P38753)
T1 sequence: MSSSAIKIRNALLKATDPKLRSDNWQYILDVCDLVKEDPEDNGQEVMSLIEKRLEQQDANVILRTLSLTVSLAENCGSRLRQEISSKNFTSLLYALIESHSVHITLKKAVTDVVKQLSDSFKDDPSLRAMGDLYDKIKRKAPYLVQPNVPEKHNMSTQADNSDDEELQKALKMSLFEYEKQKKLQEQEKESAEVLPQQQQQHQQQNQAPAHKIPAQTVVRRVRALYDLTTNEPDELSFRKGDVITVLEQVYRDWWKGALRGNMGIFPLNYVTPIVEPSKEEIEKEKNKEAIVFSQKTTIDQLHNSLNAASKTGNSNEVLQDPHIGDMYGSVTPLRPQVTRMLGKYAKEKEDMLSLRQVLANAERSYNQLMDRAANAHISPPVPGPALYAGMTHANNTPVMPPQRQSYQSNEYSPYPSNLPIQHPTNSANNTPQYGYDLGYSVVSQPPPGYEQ
Assay: co-purification

binding: binds
B1: Vps27 (expressed in S. cerevisiae under a GAL promoter) (protein, UniProt P40343 1-622)
chain: MSVSTPSELDALIEQATSESIPNGDLDLPIALEISDVLRSRRVNPKDSMRCIKKRILNTADNPNTQLSSWKLTNICVKNGGTPFIKEICSREFMDTMEHVILREDSNEELSELVKTILYELYVAFKNDSQLNYVAKVYDKLISRGIKFPEKLTLSNSPTAMFDSKTPADWIDSDACMICSKKFSLLNRKHHCRSCGGVFCQEHSSNSIPLPDLGIYEPVRVCDSCFEDYDLKRHDDSKKSKKHRHKRKKDRDYSTPEDEEELIRKAIELSLKESRNSASSEPIVPVVESKNEVKRQEIEEEEDPDLKAAIQESLREAEEAKLRSERQKASRQMQPQQPSPQPQPIHSVDLSDEEKDSIYMFASLVEKMKSRPLNEILEDSKLQNLAQRVFASKARLNYALNDKAQKYNTLIEMNGKISEIMNIYDRLLEQQLQSINLSQQYTLPQVPSDPYNYLTENVQNPAESYQTPPLQQLSSHQYKPQQDVSRQQSVKANSSPTTNIDHLKTIDVTPHAQQKPQSHVELAPSDPPYPKEEAEDEGTQAVQDEESSTQESRERPYPVETENGETSINKRPQGITRYDFPTVPARKFVQPESTVPLPASSSEIPIKEERPPSPQEELLIEL
